According to article PMC4548153:
No constants are given. Whether binding was seen depends on the method and setting. In cells and extracts the contact can be indirect. Some binding calls cover weakened binding; strength is not graded here.

Amino acid sequences for entries named in this document (tags omitted). A change or cut given only in a name is not applied to a line headed by its entry. Chains listed by the source or under a name are the forms on record and can include a tag or linker.
UniProt Q9UKV8: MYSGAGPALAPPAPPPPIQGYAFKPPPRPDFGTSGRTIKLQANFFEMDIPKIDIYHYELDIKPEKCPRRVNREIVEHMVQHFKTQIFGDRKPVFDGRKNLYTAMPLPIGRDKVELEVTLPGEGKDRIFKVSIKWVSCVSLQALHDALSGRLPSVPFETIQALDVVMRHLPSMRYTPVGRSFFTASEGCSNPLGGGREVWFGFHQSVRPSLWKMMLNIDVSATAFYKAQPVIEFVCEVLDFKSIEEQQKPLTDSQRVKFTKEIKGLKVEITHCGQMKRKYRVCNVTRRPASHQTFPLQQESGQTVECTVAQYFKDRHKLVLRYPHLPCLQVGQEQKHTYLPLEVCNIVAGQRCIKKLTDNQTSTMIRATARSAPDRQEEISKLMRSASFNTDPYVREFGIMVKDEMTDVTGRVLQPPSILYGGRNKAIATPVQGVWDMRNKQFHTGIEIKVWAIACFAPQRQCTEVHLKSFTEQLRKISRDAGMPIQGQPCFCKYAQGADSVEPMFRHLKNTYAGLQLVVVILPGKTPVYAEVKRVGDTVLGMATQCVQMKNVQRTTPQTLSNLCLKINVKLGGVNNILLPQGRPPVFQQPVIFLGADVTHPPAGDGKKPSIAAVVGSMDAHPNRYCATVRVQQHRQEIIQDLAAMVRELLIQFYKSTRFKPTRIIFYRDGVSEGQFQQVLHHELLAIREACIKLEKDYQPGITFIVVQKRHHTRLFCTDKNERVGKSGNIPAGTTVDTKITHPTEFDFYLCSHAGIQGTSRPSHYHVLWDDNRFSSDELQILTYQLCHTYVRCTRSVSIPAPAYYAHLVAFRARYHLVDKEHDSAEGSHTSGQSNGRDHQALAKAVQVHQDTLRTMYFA
UniProt P06241: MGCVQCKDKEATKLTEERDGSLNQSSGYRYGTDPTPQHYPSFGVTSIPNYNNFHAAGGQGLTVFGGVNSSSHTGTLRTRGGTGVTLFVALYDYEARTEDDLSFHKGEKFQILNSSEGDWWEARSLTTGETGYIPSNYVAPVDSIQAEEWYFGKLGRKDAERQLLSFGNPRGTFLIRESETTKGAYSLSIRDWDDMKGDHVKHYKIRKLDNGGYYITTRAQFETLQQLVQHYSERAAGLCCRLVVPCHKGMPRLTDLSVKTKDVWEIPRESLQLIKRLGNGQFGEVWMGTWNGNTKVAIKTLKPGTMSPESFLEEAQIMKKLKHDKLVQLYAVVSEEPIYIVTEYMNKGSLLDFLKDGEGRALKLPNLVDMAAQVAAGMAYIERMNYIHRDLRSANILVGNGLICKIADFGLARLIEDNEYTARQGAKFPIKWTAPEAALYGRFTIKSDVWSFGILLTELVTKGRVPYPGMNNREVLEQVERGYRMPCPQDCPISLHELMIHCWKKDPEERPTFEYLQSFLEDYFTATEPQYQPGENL
Myc/His-tagged hnRNP A2 (O88569-2, form named): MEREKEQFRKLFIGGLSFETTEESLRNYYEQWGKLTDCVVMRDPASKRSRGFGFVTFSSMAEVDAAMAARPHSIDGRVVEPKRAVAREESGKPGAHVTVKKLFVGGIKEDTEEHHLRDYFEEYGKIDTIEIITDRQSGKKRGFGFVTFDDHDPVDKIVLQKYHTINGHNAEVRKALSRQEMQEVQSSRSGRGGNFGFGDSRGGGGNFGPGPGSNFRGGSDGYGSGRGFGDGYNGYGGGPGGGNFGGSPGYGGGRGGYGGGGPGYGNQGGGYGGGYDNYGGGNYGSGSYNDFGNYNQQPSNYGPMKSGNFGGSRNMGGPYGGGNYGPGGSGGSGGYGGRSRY

Key:
FLAG/HA-tagged Ago2 [1] = molecular target: FLAG/HA-tagged Ago2 (UniProt Q9UKV8); experiment: co-IP; FLAG/HA-Ago2 precipitated with anti-FLAG M2 magnetic beads from lysate of Oli-neu cells co-transfected with FLAG/HA-Ago2 and eGFP or FynWT; Western blot for pTyr (4G10), HA, active Fyn (SrcpY418) and GAPDH
FLAG/HA-tagged Ago2 [2] = molecular target: FLAG/HA-tagged Ago2 (UniProt Q9UKV8); experiment: co-IP; FLAG/HA-Ago2 precipitated with anti-FLAG M2 magnetic beads from lysate of Oli-neu cells overexpressing FLAG/HA-Ago2 and A2-Myc/His or eGFP; 2 h at 4°C, washed three times with lysis buffer (50 mM Tris, 150 mM NaCl, 1 mM EDTA, 1% Triton X-100), eluted with FLAG peptide; Western blot (HA, Myc, GAPDH, β-Actin)
Myc- and His-tagged Ago2 = Myc- and His-tagged Ago2 (UniProt Q9UKV8); experiment: pull-down; His isolation of Ago2-Myc/His with Dynabeads His Tag Isolation and Pulldown (cobalt) beads from lysate of HEK293T cells co-transfected with eGFP, FynWT or Fyn+; 30 min at RT, 300 mM NaCl, 150 mM imidazole, 1% Triton X100; washes with 500 mM and 2 M imidazole; Western blot for pTyr, Myc and active Fyn (Src418)

For “wild-type Fyn (FynWT), active Fyn, in Oli-neu cells (from UniProt P06241 1-537) (enzyme)”, the binding (FLAG/HA-tagged Ago2 [1]) was “binds”.
For “Myc/His-tagged hnRNP A2 (from UniProt O88569-2 1-341)”, the binding (FLAG/HA-tagged Ago2 [2]) was “binds”.
With “wild-type Fyn (FynWT), active Fyn, in HEK293T cells (from UniProt P06241 1-537) (enzyme)” the binding (Myc- and His-tagged Ago2) was “binds”.
